{
  "source": "patent US9962341B2",
  "about": "“Active pharmaceutical ingredient (API) comprising cannabinoids for use in the treatment of cancer” (GW Pharma Limited, priority 2014, dated 2018)",
  "system": "SKBR3",
  "test": "Cell viability (CellTiter-Blue, 72 h), SKBR3 breast cancer cells",
  "format": "cell-based",
  "details": "SKBR3, 1% FBS",
  "experimental": "The cell lines tested in this Example were as follows. Breast cancer: MDA-MB-231; SK-BR3; and BT474. Liver cancer: HepG2.\nThe phytocannabinoids were tested alone and in various ratioed combinations in media containing final concentrations of 10% and 1% foetal bovine serum at 72 h for the breast and prostate cancer lines and 1% foetal bovine serum for the liver cancer line HepG2.\nEach tumour cell line was maintained in vitro in RPMI 1640+10% heat inactivated FBS and 2 mM L-glutamine (growth media) at 37° C. in 5% CO2 and humidified conditions. The cells were harvested, washed, re-suspended into growth medium and counted. The cells were re-suspended into assay media (RPMI 1640+5% heat inactivated FBS+ and 2 mM L-glutamine) at 8×104-2×10^5 cells/ml (dependent upon cell type) and plated into the middle 240 wells of 384 well tissue culture plates (Corning CellBind, black-wall plates) 12.5 μl/well aliquots; 62.5 μl of growth media was aliquoted into the outer wells. There were 4 plates for each cell line. The plates were incubated overnight at 37° C., in 5% humidified CO2.\nThe phytocannabinoid test compounds were prepared in 100% DMSO vehicle at a stock concentration of 10 mM.\nStarting with the 10 mM stock, the compounds were diluted to 125 μM in FBS-free growth media.\nThese were diluted in FBS-free growth media to 125 μM before serial dilution.\n5 volumes of CBD 10 mM stock was added to 1 volume of the other agent (also at 10 mM) and 4 volumes of DMSO. This made a final concentration of 5 mM:1 mM. This was then diluted in FBS-free growth media so the top concentration of CBD would be 125 μM (before serial dilution). Each compound and compound combination stock was serially diluted in FBS-free growth media (containing 1.25% v/v DMSO) from 125 μM to 41.7, 13.89, 4.63, 1.54, 0.514, 0.171, 0.057 and 0.019 μM (1.25× final assay concentrations). Vehicle was prepared at equivalent dilutions in assay media. The top final concentration of compound in the assay was always 100 μM so CBD5:1CBG was 100 μM CBD and 20 μM CBG.\nTaxotere SOC was prepared at a stock concentration of 1 mM in 100% DMSO. Taxotere was serially diluted from the stock solution into FBS-free growth media to 12.5 μM, then serially diluted in FBS-free growth media containing 1.25% DMSO to 4.17, 1.39, 0.46, 0.154, 0.051, 0.017, 0.006, 0.002 μM (1.25× final assay concentrations).\nThis was then serially diluted in FBS-free growth media to 0.417, 0.139, 0.046, 0.0154, 0.0051, 0.0017, 0.0006, 0.0002 μM (1.25× final assay concentrations). This was plated as a positive control for the SKBR3 & BT474 cell lines. 50 μl per well of compound/vehicle dilutions was added to the plates in replicates of 6. Where applicable total volume in the well was made up to 62.5 μl with assay media.\nThe plates were incubated for 72 h at 37° C. in 5% humidified CO2. To develop the plates, at 72 h, 10 μl of CellTiter-Blue™ reagent was added to each test/blank well. […] Fluorescence was measured using a Flex II Station plate reader (570 nm excitation wavelength, 600 nm emission wavelength, 590 nm cut-off) after 3 h. […]\nThe raw data values expressed in relative fluorescent units were normalised to the vehicle for each individual plate and any reduction in fluorescence indicated a decrease in viability.\nThe data were analysed in GraphPad PRISM using a non-linear sigmoidal plot with variable slope (asymmetric five point linear regression) and where possible an IC50 value for each single compound and combination was generated. […]",
  "data": [
    {"smiles": "CCCCCc1cc(O)c(C/C=C(\\C)CCC=C(C)C)c(O)c1C(=O)O", "note": "[CBGA, Cannabigerolic acid]", "values": [
      {"measurement": "m (shape parameter of dose effect curve)", "result": 1.97}
    ]},
    {"smiles": "CCCCCc1cc(O)c(C/C=C(\\C)CCC=C(C)C)c(O)c1", "note": "[CBG, Cannabigerol]", "values": [
      {"measurement": "m (shape parameter of dose effect curve)", "result": 2.51}
    ]},
    {"smiles": "CCCc1cc(O)c2c(c1)OC(C)(C)[C@@H]1CCC(C)=C[C@@H]21", "note": "[THCV, Tetrahydrocannabivarin]", "values": [
      {"measurement": "m (shape parameter of dose effect curve)", "result": 1.94}
    ]},
    {"smiles": "C=C(C)[C@@H]1CCC(C)=C[C@H]1c1c(O)cc(CCCCC)c(C(=O)O)c1O", "note": "[CBDA, Cannabidiolic acid]", "values": [
      {"measurement": "m (shape parameter of dose effect curve)", "result": 2.57}
    ]},
    {"smiles": "C=C(C)[C@@H]1CCC(C)=C[C@H]1c1c(O)cc(CCCCC)cc1O", "note": "[CBD, Cannabidiol]", "values": [
      {"measurement": "m (shape parameter of dose effect curve)", "result": 2.64}
    ]}
  ]
}
